Laboratory results: PMC2667185
Results are given in words; binding and its absence hold for the method and conditions named. Some results given as binding are weak or reduced against the parent protein; the word gives no strength.

Legend:
[1] = biological target: T1, Mus musculus XRCC2 full length (Mus musculus) (UniProt Q9CX47); assay: two-hybrid; same mated yeast; colony lift assay, qualitative β-galactosidase activity
T1 sequence: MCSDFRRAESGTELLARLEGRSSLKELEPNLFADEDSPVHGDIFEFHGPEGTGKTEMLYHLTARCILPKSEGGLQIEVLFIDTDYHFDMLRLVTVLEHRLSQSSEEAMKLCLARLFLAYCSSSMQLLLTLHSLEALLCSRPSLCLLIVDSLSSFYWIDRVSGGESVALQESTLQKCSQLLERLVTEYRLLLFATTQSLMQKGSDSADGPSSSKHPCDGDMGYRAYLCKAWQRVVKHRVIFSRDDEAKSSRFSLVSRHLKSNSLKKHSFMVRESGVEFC

[2] = biological target: T2, Mus musculus RAD51C full length (Mus musculus) (UniProt Q924H5); assay: as above
T2 sequence: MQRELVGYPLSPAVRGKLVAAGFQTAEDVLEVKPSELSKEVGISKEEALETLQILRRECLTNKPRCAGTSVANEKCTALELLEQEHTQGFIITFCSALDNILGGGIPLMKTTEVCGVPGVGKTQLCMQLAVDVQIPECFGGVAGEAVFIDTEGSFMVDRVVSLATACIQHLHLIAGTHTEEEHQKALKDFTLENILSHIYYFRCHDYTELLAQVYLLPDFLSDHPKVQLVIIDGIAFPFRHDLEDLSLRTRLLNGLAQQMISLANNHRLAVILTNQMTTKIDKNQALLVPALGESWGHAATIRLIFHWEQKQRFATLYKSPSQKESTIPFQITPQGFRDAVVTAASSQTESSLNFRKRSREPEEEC

[3] = biological target: T1, Mus musculus XRCC2 full length (Mus musculus); assay: two-hybrid; GAL4 activating domain (pGADT7) and DNA binding domain (pGBKT7) fusions, AH109 x Y187 diploids; growth on -Ade/-Leu/-His/-Trp medium, 10 days at 30°C; both orientations of the GAL4 fusion
[4] = biological target: T2, Mus musculus RAD51C full length (Mus musculus); assay: as above
[5] = biological target: T1, Mus musculus XRCC2 full length (Mus musculus); assay: two-hybrid; same mated yeast; liquid β-galactosidase assay with ONPG as substrate, in triplicate, constructs in both the GAL4 activating and DNA binding domains
[6] = biological target: T2, Mus musculus RAD51C full length (Mus musculus); assay: as above
[7] = biological target: T1, Mus musculus XRCC2 full length (Mus musculus); assay: two-hybrid; RAD51DΔ3 and RAD51D+int3 directly compared with the original RAD51D deletion constructs (4–77, 77–329) against RAD51C and XRCC2 (Figure 3A-B); read-out not stated

Measured: binding

B1: Mus musculus RAD51D full length (protein, UniProt O55230 1-329)
chain: MGMLRAGLCPGLTEETVQLLRGRKIKTVADLAAADLEEVAQKCGLSYKALVALRRVLLAQFSAFPLNGADLYEELKTSTAILSTGIGSLDKLLDAGLYTGEVTEIVGGPGSGKTQVCLCVAANVAHSLQQNVLYVDSNGGMTASRLLQLLQARTQDEEKQASALQRIQVVRSFDIFRMLDMLQDLRGTIAQQEATSSGAVKVVIVDSVTAVVAPLLGGQQREGLALMMQLARELKILARDLGVAVVVTNHLTRDWDGRRFKPALGRSWSFVPSTRILLDVTEGAGTLGSSQRTVCLTKSPRQPTGLQEMIDIGTLGTEEQSPELPGKQT
not listed: [7]
binds: all other assays above

B2: Mus musculus RAD51DΔ7b (deleted for residues 219 through 223) (protein, UniProt O55230)
chain: MGMLRAGLCPGLTEETVQLLRGRKIKTVADLAAADLEEVAQKCGLSYKALVALRRVLLAQFSAFPLNGADLYEELKTSTAILSTGIGSLDKLLDAGLYTGEVTEIVGGPGSGKTQVCLCVAANVAHSLQQNVLYVDSNGGMTASRLLQLLQARTQDEEKQASALQRIQVVRSFDIFRMLDMLQDLRGTIAQQEATSSGAVKVVIVDSVTAVVAPLLGGLALMMQLARELKILARDLGVAVVVTNHLTRDWDGRRFKPALGRSWSFVPSTRILLDVTEGAGTLGSSQRTVCLTKSPRQPTGLQEMIDIGTLGTEEQSPELPGKQT
not listed: [7]
binds: all other assays above

B3: RAD51D (4–77) deletion construct (domain or fragment, UniProt O75771 4-77)
chain: LRVGLCPGLTEEMIQLLRSHRIKTVVDLVSADLEEVAQKCGLSYKALVALRRVLLAQFSAFPVNGADLYEELKT
binds: [7]
